These results are taken from PubChem BioAssay AID445 (National Center for Advancing Translational Sciences (NCATS), 2006).

This assay in a line: IkB Signaling. As to conditions: ABC-DLBCL IkBa-CBG/CBR dual luciferase ratio (green luciferase fused to IkBa over red control in OCI-Ly3 lymphoma cells), 4 h. Summed up: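 Luminescence ratio of IκBα-fused green versus native red beetle luciferase in OCI-Ly3 cells, 4 h post-doxycycline with compound; red signal alone, scaled from basal (0%) to zero light (-100%), flagged nonspecific or cytotoxic effects.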
[1] abbreviates: measured here: control luc red channel unless noted.
Setting [2] is: measured here: IkB-luc green channel.
[3] abbreviates: measured here: control luc red channel.

The structures appear in SMILES notation. The list shows a part of the results. The main result of the screen is listed elsewhere. These columns were measured beside it and carry no call. The list favours compounds with an active or inconclusive main result. The note in brackets gives the kind of curve behind each potency; many fits are weak.

Regarding `O=C1OCC2=C1C(c1ccc3c(c1)OCO3)Sc1ccccc1N2` (centres undefined), the AC50 under setting [1] was 20 µM [falling, partial curve].
Take `CCOC(=O)C1CCCN(C(=O)c2ccc3c(c2)N(Cc2ccc(Cl)cc2)C(=O)c2ccccc2S3=O)C1` (centres undefined): under setting [1], the AC50 was 25.1 µM [falling, partial curve].
As for `COc1cccc(NC(=O)Nc2ccc3nc(N4CCN(C)CC4)cc(C)c3c2)c1`, the AC50 under setting [1] was 31.6 µM [falling, single point].
In the case of `CCCCNC(=O)CCn1c(=O)c2ccccc2n(Cc2cccc(Cl)c2)c1=O`, under setting [1], the AC50 was 39.8 µM [rising, partial curve].
The same measure, in the same setting: the value for `Cc1nc(N2CCCC2)c2c(C(=O)Nc3ccc(Br)cc3F)c(C)oc2n1` was 39.8 µM [falling, single point]; that for `NCCCCNS(=O)(=O)c1ccc2c(Cl)cccc2c1` was 31.6 µM [falling, partial curve, poor fit].
For `Cc1ccc(Cn2nnc3c(=O)[nH]c(C4CCN(S(=O)(=O)c5ccccc5)CC4)nc32)cc1`, the AC50 runs as follows: under setting [2], 31.6 µM [falling, partial curve, poor fit]; under setting [3], 20 µM [falling, partial curve].
Turning to `Cc1ccccc1C(=O)Nc1nc(-c2ccc(Br)cc2)ns1`, the AC50 under setting [1] was 2.51 µM [falling, full curve].
With `O=C(CSc1nnnn1-c1ccccc1)Nc1nsc(-c2ccccc2)n1`, the AC50 under setting [1] is 6.31 µM [falling, partial curve].
The same measure, in the same setting: to `CC(C)Oc1ccc(CNC(=O)C2CCN(C(=O)N3CC(C)Oc4ccccc43)CC2)cc1` (centres undefined) belongs 0.631 µM [falling, full curve]; to `CC(C)n1c(SCc2ccccc2F)nc2c1c(=O)n(C)c(=O)n2C`, 20 µM [falling, partial curve]; to `CCN1CC=C2C(C1)C(c1ccc(Cl)s1)C(C#N)=C(N)C2(C#N)C#N` (centres undefined), 3.98 µM [rising, partial curve] [measured here: IkB-luc green channel].
Consider `CCOc1ccc2nc(N3CCC(C(=O)Nc4cc(C)ccc4C)CC3)sc2c1`, for which the AC50 under setting [1] is 10 µM [falling, partial curve].
For the compound `Cc1cc(C)n(-c2ccc(C(=O)Nc3ccc4c(c3)OCCO4)cc2)n1`, the AC50 under setting [1] is 15.8 µM [falling, partial curve].
The same measure, in the same setting: the value for `O=C(NC1CCCCC1)c1ccc(CSc2nc3ccncc3n2Cc2ccccc2F)cc1` was 31.6 µM [falling, partial curve].
With `O=C(CSCc1cnn(-c2ccccc2)c1-n1cccc1)NCc1ccc(F)cc1`, the AC50 under setting [1] was 6.31 µM [rising, single point].
Still for that read-out and setting: to `Oc1c(C(c2ccccc2Cl)N2CCN(Cc3ccccc3)CC2)sc2nc(-c3ccco3)nn12` (centres undefined) belongs 6.31 µM [rising, single point]; to `Cc1sc2nc(SCC(=O)NCc3cccs3)[nH]c(=O)c2c1C`, 12.6 µM [falling, partial curve].
The same measure, in the same setting: the value for `Cc1ccccc1CNC(=O)c1ccc2c(c1)c(C)c(C)n2C` was 25.1 µM [falling, single point]; that for `CN(C)c1ccc(CNC(=O)c2ccc(Cn3c(SCc4ccccc4)nc4cccnc43)cc2)cc1` was 7.94 µM [falling, partial curve]; that for `Cc1ccc(Cl)cc1NC(=O)C1CCN(c2nnc(C)c3c(C)n(-c4ccccc4)nc23)CC1` was 31.6 µM [falling, single point].
The same measure, in the same setting: the value for `Cc1ccccc1Cn1nnc2c(=O)[nH]c(C3CCN(C(=O)c4ccc(F)cc4)CC3)nc21` was 2.51 µM [rising, partial curve]; that for `COCC(=O)Nc1cccc2ccccc12` was 1 µM [falling, full curve].
Regarding `FC(F)Oc1ccccc1C1CC(c2ccc(Br)s2)Nc2ncnn21` (centres undefined), the AC50 under setting [1] is 15.8 µM [falling, partial curve].
Still for that read-out and setting: the value for `Cc1ccccc1N1CCN(S(=O)(=O)c2nnc(NC(=O)c3ccc(C(C)C)cc3)s2)CC1` was 12.6 µM [falling, single point]; that for `COc1cc(NC(=O)c2cc(C3CC3)nc3c2c(C)nn3-c2ccccc2)cc(OC)c1` was 20 µM [falling, partial curve]; that for `CCCCCn1c(NCc2ccc(OC)cc2)nc2ccccc21` was 12.6 µM [falling, partial curve].
Still for that read-out and setting: the value for `COc1ccccc1OC(C)C(=O)Nc1cccc(-c2nc3ccccc3s2)c1` (centres undefined) was 3.16 µM [falling, partial curve]; that for `c1ccc(COc2ccc(OCCCn3cncn3)cc2)cc1` was 31.6 µM [falling, single point]; that for `NC(=O)c1ccccc1N/C=C/C(=O)c1ccco1` was 3.98 µM [falling, full curve].
`Cc1cc(C)cc(NC(=O)Cn2c(-c3cncs3)nc3ccccc32)c1`: under setting [1], the AC50 is 12.6 µM [falling, single point].
On the same count and under the same terms, to `CCOC(=O)N1CCC(NC(=O)c2cc3c(C)nc4ccccc4c3o2)CC1` belongs 7.94 µM [falling, partial curve].
On the same count and under the same terms, the value for `CC(=O)Nc1nonc1-c1nnc(SCC(=O)Nc2ccc(C)cc2)n1-c1ccccc1` was 12.6 µM [falling, partial curve]; that for `COc1ccc(-c2cc(-c3ccccc3)c(C#N)c(SCC(O)CS(=O)(=O)Cc3ccc(Cl)cc3)n2)cc1` (centres undefined) was 6.31 µM [falling, partial curve, poor fit]; that for `CCCN1CCN(c2ncnc3sc(C(=O)Nc4ccc(C(C)C)cc4)c(C)c23)CC1` was 31.6 µM [falling, partial curve].
Still for that read-out and setting: to `COc1cccc(N2CCN(C(=O)c3ccc(C)c(NC(=O)c4nsc5ccccc45)c3)CC2)c1` belongs 39.8 µM [falling, single point].
Consider `Cc1ccc(N(CC(=O)NCCc2ccc(Cl)cc2)S(=O)(=O)c2c(C)noc2C)cc1`, for which the AC50 under setting [1] was 6.31 µM [falling, partial curve].
As for `COc1ccc(CN2CCc3c(c(=O)n4ncc(C(=O)N5CCN(c6ccccc6OC)CC5)c4n3C)C2)cc1`, the AC50 under setting [1] was 25.1 µM [falling, single point].
Same read-out and setting: the value for `CCc1ccc(-n2c(=O)c3c4c(sc3n(CC(=O)c3ccc(F)cc3)c2=O)CCC4)cc1` was 39.8 µM [falling, single point]; that for `COc1ccc(-c2ccc3c(N)c(C(=O)c4ccc(OC)c(OC)c4)sc3n2)cc1` was 39.8 µM [falling, single point].
On to `CN(CCC#N)C(=O)CSc1ncnc2sc(-c3ccccc3)cc12`, for which the AC50 under setting [1] is 31.6 µM [falling, single point].
Same read-out and setting: the value for `CN=Cc1sc2ccccc2c1O` was 12.6 µM [falling, partial curve]; that for `COc1ccc(Nc2ccc3c(c2)=NC2(CCCCC2)[N+]=3[O-])cc1` was 2 µM [falling, full curve].
Consider `CCCc1cc(=O)[nH]c(SCC(=O)N2CCN(c3ccccc3)CC2)n1`, for which, under setting [1], the AC50 is 31.6 µM [falling, single point].
The same measure, in the same setting: to `Cc1ccc(NC(=O)CSc2nnc3scc(-c4ccc(Cl)cc4)n23)cc1` belongs 12.6 µM [falling, partial curve, poor fit]; to `CCN(CC)C(=O)Cn1c(=O)cc(C)c2c(C)nn(-c3cccc(Cl)c3C)c21`, 12.6 µM [falling, partial curve]; to `COc1cccc(CNC(=O)C2CCC(CNS(=O)(=O)c3ccc4c(c3)CCCC(=O)N4)CC2)c1` (centres undefined), 39.8 µM [falling, single point].
Same read-out and setting: to `Cc1ccc(Nc2nc3nonc3nc2Nc2cccc(C(F)(F)F)c2)cc1Cl` belongs 0.126 µM [falling, full curve]; to `COc1ccc(NC(=O)Cn2cc(S(=O)(=O)N3CCN(c4ccccc4F)CC3)c3ccccc3c2=O)cc1Cl`, 1.26 µM [falling, full curve, poor fit]; to `CCn1c(SCC(=O)c2[nH]c(C)c(C(C)=O)c2C)nnc1-c1cccs1`, 39.8 µM [falling, partial curve].
In the case of `CNc1c(NC(=O)c2ccc(OC)c(OC)c2)c(=O)oc2ccccc12`, under setting [1], the AC50 is 3.16 µM [falling, full curve].
Regarding `Cc1n[nH]c(C)c1S(=O)(=O)N(CC(=O)Nc1ccc2c(c1)OCCO2)c1ccc(C(C)C)cc1`, the AC50 under setting [1] is 15.8 µM [falling, partial curve].
Take `Cc1ccc(NC(=O)C(Cc2c[nH]c3ccccc23)NC(=O)OC(C)(C)C)c(C)c1` (centres undefined): under setting [1], the AC50 was 12.6 µM [falling, partial curve].
Same read-out and setting: the value for `COC(=O)c1ccc(Cl)cc1NC(=O)N1CC2CCCN2c2ccccc21` (centres undefined) was 10 µM [rising, partial curve]; that for `c1ccc(Cn2nnnc2C(c2cccs2)N2CCCCCC2)cc1` (centres undefined) was 25.1 µM [falling, single point].
`O=c1cc(-c2ccccc2)[nH]n1-c1nc2ccccc2[nH]1`: under setting [1], the AC50 is 39.8 µM [falling, single point].
With `COc1ccccc1-n1nnnc1S(=O)(=O)Cc1ccc(Cl)cc1`, the AC50 under setting [2] was 39.8 µM [falling, single point] and the AC50 under setting [3] is 3.16 µM [falling, partial curve].
With `COc1ccccc1OCCn1c(NC(=O)c2ccccc2Cl)nc2ccccc21`, the AC50 under setting [1] is 7.94 µM [falling, partial curve].
On to `Cc1ccc(NC(=O)C(=O)NCC(c2cccnc2)N2CCN(Cc3ccccc3)CC2)cc1C` (centres undefined), for which the AC50 under setting [1] is 3.16 µM [falling, partial curve, poor fit].
Same read-out and setting: to `COCCNC(=O)CCC(=O)NNc1nc2ccccc2c2nc(C)nn12` belongs 0.631 µM [rising, full curve]; to `CS(=O)(=O)N1CCc2cc(C(=O)N3CCN(c4cccc(Cl)c4)CC3)ccc21`, 25.1 µM [falling, single point]; to `Cc1ccc(C)c(N2CCN(C(=O)c3cn(CC(C)C)c(=O)c4c3c3ccccc3n4C)CC2)c1`, 10 µM [falling, partial curve].

One may read the AC50 as the midpoint of the concentration-response curve, whichever way the signal moves.
